The target in one assay is delta 1-91 RIα. As to the kind of experiment: fluorescence anisotropy. (Fluorescence polarisation rises when a labelled molecule tumbles more slowly, as on binding a larger partner.)
Assay [1] deals with RIIβ isoform of the PKA regulatory subunit. Briefly: fluorescence anisotropy.

No constants are given. Whether binding was seen depends on the method and setting. For some assays here: Binding calls can cover weak binding; strength is not graded here.

B1: AKB (dual), WT (SEQ ID NO:108) …, rhodamine-labeled (peptide)
peptide: VQGNTDEAQEELAWKIAKMIVSDVMQQC
modifications: tetramethylrhodamine-5-maleimide on the C-terminal Cys; C-terminal amide
With B1, the binding result in the assay with delta 1-91 RIα was “no binding”; in assay [1], “binds”.

The record behind these values is patent publication US20030232420A1.
